Experimental data published in PubChem BioAssay AID720504 (National Center for Advancing Translational Sciences (NCATS), 2013).
Values joined by “and” are separate entries in the source; they are usually repeats but may differ in a detail not shown here. Identical values can stand only once. About 10,000 (2.8%) of roughly 360,000 compounds were called active. The shares of active, inactive and inconclusive entries below differ from those in the screen. Calls come from the whole dose curve; as a rule, active = well fitted inhibition curve with a large enough effect; inconclusive = small, poorly fitted or top-dose-only effect; inactive = flat fitted curve, though single readings scatter. Potencies beside an inconclusive call are fits to weak or partial responses and may not hold up.

Sequences of proteins named here, by UniProt entry; tags and fusion partners are left off.
UniProt P53350, whole entry, looked up: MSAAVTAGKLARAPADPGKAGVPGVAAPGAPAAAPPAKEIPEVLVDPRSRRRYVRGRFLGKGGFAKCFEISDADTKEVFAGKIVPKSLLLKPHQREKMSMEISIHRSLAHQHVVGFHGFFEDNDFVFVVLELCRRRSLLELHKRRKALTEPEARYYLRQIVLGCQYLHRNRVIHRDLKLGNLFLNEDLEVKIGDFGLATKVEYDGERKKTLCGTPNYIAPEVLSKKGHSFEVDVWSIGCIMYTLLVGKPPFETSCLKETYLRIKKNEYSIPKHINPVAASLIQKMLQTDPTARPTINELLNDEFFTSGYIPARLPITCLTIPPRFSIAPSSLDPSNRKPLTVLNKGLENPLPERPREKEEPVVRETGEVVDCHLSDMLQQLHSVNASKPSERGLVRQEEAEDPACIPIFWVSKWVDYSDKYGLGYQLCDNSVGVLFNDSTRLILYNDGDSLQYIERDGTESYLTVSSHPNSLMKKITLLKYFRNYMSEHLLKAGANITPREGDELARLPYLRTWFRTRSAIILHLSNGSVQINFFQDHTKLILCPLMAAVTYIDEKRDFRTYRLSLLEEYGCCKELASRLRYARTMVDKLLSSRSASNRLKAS

Molecular target: Serine/threonine-protein kinase PLK1 (Homo sapiens) (UniProt P53350)
Assay: qHTS for Inhibitors of PLK1-PDB (polo-like kinase 1 - polo-box domain): Primary Screen; note: nearly all actives have a fitted effect of over 65% in size; for max response, negative = inhibition: series mostly up to about 57 µM
Details: Plk1 PBD binding of FITC phosphopeptide, fluorescence polarization
% is set by controls: 0 for no effect and ±100 for the full control effect; potency is the fitted concentration of half-maximal effect.

Compound	max response, negative = inhibition	Potency
CCNC(=S)Nc1ccc2c(c1)c(=O)n(C)n2-c1ccc(C(C)(C)C)cc1	inconclusive: -32.2% [inhibitor]	
Cc1ccc(-n2c(C)cc(C(=O)CN3C(=O)C(=O)N(C4CCCC4)C3=O)c2C)cc1		active: 26.7 µM
COc1ccc(CC(=O)N2CCN(S(=O)(=O)c3cc(Cl)ccc3Cl)CC2)cc1	inactive: 2.22%	
COc1ccc(NC(=O)C/C(C)=N/NC(=O)c2ccco2)c([N+](=O)[O-])c1	inactive: -3.9%	
Cc1ccc(-c2nc3ncccc3o2)cc1NC(=S)NC(=O)c1ccco1		inconclusive: 26.7 µM [inhibitor, single point]
COc1ccc(NC(=O)c2ccc(-n3cccn3)nc2)cc1	inactive: -6.63%	
Cn1cnnc1SCC(=O)Nc1c(F)cc(F)cc1Br		inconclusive: 23.8 µM [inhibitor, partial curve]
Cc1ccc(OCc2cn3cccnc3n2)cc1	inactive: 1.68%	
CCSc1nnc(-c2cccc(S(=O)(=O)N(CC)CC)c2)n1Cc1ccccc1	inactive: -16.7%	
Cc1cc(C(=O)N2CCC2(C)C(=O)NS(=O)(=O)c2ccc(Cl)cc2)nn1C (configuration not stated)	inactive: 4.22%	
Cc1cn(-c2cc(C(=O)Nc3ccc(C)c(NC(=O)N4CCNC4=O)c3)cc(C(F)(F)F)c2)cn1		inconclusive: 37.7 µM [inhibitor, single point]
COc1cc(/C=N/Nc2nc(C)cc(C)n2)ccc1OC(=O)c1ccco1	inactive: 4.66%	
O=C(O)CSc1nc(SCc2ccccc2Cl)nc2c1CCCC2	inconclusive: -30.5% [inhibitor]	
CC1(C)CC(=O)C2=C(C1)OC(N)=C([N+](=O)[O-])C2c1ccc(C#N)s1 (configuration not stated)	inconclusive: -31.3% [inhibitor]	
COC(=O)[C@H](CCSC)NC(=O)Cn1cnc2c(SC)nc(N)nc21		inconclusive: 21.2 µM [inhibitor, partial curve]
O=S1(=O)CCC(NC(=S)SCCOc2ccccc2)C1 (configuration not stated)	inconclusive: -32.7% [inhibitor]	
O=c1oc2ccccc2c(O)c1Cc1cc(Cl)c2cccnc2c1O		inconclusive: 33.6 µM [inhibitor, single point]
COc1ccccc1CN(Cc1cc2cc3c(cc2[nH]c1=O)OCCO3)Cc1nnnn1Cc1ccco1		inconclusive: 16.8 µM [inhibitor, partial curve]
Cc1cccc(-c2nc(CS(=O)CC(=O)NCc3ccco3)c(C)o2)c1 (configuration not stated)		inconclusive: 21.2 µM [inhibitor, single point]
CCCC(=O)Nc1nnc(-c2ccc3c(c2)OCCO3)o1		inconclusive: 26.7 µM [inhibitor, single point]
O=C(Nc1ccc(O)c(C(=O)O)c1)c1cccc(NC(=O)c2ccco2)c1		inconclusive: 26.7 µM [inhibitor, single point]
O=C(O)/C=C/C(=O)Nc1ccc(C2(c3ccc(NC(=O)/C=C/C(=O)O)cc3)c3ccccc3-c3ccccc32)cc1		active: 29.9 µM
FC(F)(F)c1ccccc1-n1c(CN2CCCCC2)n[nH]c1=S	inconclusive: -36.6% [inhibitor]	
O=C(NC(=S)Nc1ccc(S(=O)(=O)Nc2ncccn2)cc1)c1cccc(Br)c1		inconclusive: 15 µM [inhibitor, partial curve]

Compound	max response, negative = inhibition	Potency
Fc1ccc(CN2CCN(c3ncccn3)CC2)cc1	inactive: 3.69%	
COC(=O)c1cn(-c2ccccc2)nc1C(=O)OC	inactive: -6.41%	
CN(C)c1ccc(/C=N/n2cnn(Cc3ccccc3Cl)c2=S)cc1		inconclusive: 23.8 µM [inhibitor, partial curve]
Cc1ccc(C(c2cc(Cl)c3cccnc3c2O)N2CCN(C)CC2)cc1 (configuration not stated)		active: 1.5 µM
Cn1c(=O)c(Nc2ccc(Cl)cc2)c2c3c(cccc31)C(=O)c1ccccc1-2		active: 13.4 µM
CC(=O)OCC1=C(C(=O)O)N2C(=O)C(NC(=O)COc3ccc(F)cc3)C2SC1 (configuration not stated)		inconclusive: 21.2 µM [inhibitor, partial curve]
O=C(COC(=O)c1cc(-c2cccs2)nc2ccccc12)NCc1ccco1		inconclusive: 26.7 µM [inhibitor, partial curve]
CCCn1c(SCCc2ccccc2)nc2c1c(=O)[nH]c(=O)n2C		inconclusive: 26.7 µM [inhibitor, partial curve]
CCOC(=O)c1ccc(-n2c(=S)sc3c(=O)[nH]c(C)nc32)cc1		active: 5.32 µM
Cc1cc(C)n(C(C[N+](=O)[O-])c2ccc(Cl)cc2)n1 (configuration not stated)		active: 16.8 µM
c1ccc(SCCc2ccncc2)cc1		active: 21.2 µM
CC1=Nc2ccc(C)cc2/C1=C/c1c(N)n2c(S(=O)(=O)C(C)C)nsc2nc1=O		inconclusive: 26.7 µM [inhibitor, partial curve]
O=C(Nc1nc(-c2ccc(F)cc2)cs1)c1cccnc1	inactive: -0.033%	
O=C(Cc1ccc2c(c1)CCCC2)Nc1ccccc1Br		active: 23.8 µM
COc1ccc(CCNC(=O)c2ccn[nH]2)cc1OC		active: 2.99 µM
CC(C)c1ccc(NC(=O)C2Cc3c(-c4ccc(Cl)cc4)ccnc3O2)cc1 (configuration not stated)	inactive: -10.1%	
O=C1Nc2ccc(Br)cc2/C1=C/C(=O)c1ccc2c(c1)OCO2		inconclusive: 10.6 µM [inhibitor, partial curve]
Cc1ccc(S(=O)(=O)N2C[C@H]3[C@H]4C(=O)N(c5ccccc5)C(=O)[C@H]4C[C@H](OC(=O)Nc4cccs4)[C@@]3(O)C2)cc1		inconclusive: 67 µM [inhibitor, partial curve]
O=C1CC(=O)N(Cc2cccs2)C(=O)N1	inactive: -19.6%	
COC(=O)c1c(-c2ccccc2)csc1N		active: 10.6 µM
CC(C)CN1C(=O)/C(=C/c2ccco2)NC1=S		inconclusive: 33.6 µM [inhibitor, single point]
C=CCC(Nc1ccccc1)C12C=CC(O1)C(C(=O)OC)=C2C(=O)OC (configuration not stated)		inconclusive: 23.8 µM [inhibitor, partial curve]
COc1ccc(C(=O)N/N=C/c2c[nH]c3ccccc23)cc1	inactive: -6.77%	
Cc1ccc(NC(=O)CSc2ccccn2)cc1S(=O)(=O)N1CCOCC1	inconclusive: -34.7% [inhibitor]	

Compound	max response, negative = inhibition	Potency
COc1ccc(C(C(=O)Nc2ccc(F)cc2)N2CCN(c3cccc(C(F)(F)F)n3)CC2)cc1 (configuration not stated)	inactive: -13%	
O=C(CSc1cc(Cl)ccc1Cl)NC1CCCC1		inconclusive: 18.9 µM [inhibitor, partial curve]
Cc1nn(-c2cc(N3CCCCC3)ccc2[N+](=O)[O-])c(=O)c2ccccc12	inactive: -1.61% and inactive: 7.21%	
COc1cc(/C=C/[N+](=O)[O-])ccc1OC(=O)c1cc2ccccc2oc1=O		active: 13.4 µM
CCc1nnc(NC(=O)c2cccc(S(=O)(=O)N(C)c3ccc(OC)cc3)c2)s1	inconclusive: -32.4% [inhibitor]	
O=C1NC(c2ccncc2)Nc2sc3c(c21)CCCC3 (configuration not stated)		inconclusive: 21.2 µM [inhibitor, partial curve]
COc1ccccc1/C=C/C=N/n1c(-c2ccc(Cl)cc2)n[nH]c1=S		active: 11.9 µM
Cc1cc(C=C2C(=O)c3ccccc3C2=O)c(C)n1-c1ccccc1		inconclusive: 26.7 µM [inhibitor, single point]
CCN(C(=O)CN1CCN(c2ccccc2)CC1)c1c(N)n(Cc2ccccc2)c(=O)[nH]c1=O		inconclusive: 37.7 µM [inhibitor, single point]
CN(c1ccccc1C(=O)O)S(C)(=O)=O	inactive: -2.41%	
CCOc1cc(/C=C2\C(=O)N(c3ccc(C(N)=O)cc3)N=C2C)ccc1OC(=O)c1cccs1		inconclusive: 2.12 µM [inhibitor, partial curve]
COc1ccc(S(=O)(=O)Nc2nnc(CC(C)(C)C)s2)cc1		active: 29.9 µM
COc1ccc(NC(=O)C2CCCN(S(=O)(=O)c3cccnc3)C2)cc1OC (configuration not stated)	inactive: 0.345%	
CCOC(=O)C1=C(O)/C(=C\c2cccc(OC)c2)N=C1C	inactive: -7.28%	
CCN(CC)c1ccc(NC(=S)Nc2ccc(F)cc2)cc1		inconclusive: 29.9 µM [inhibitor, partial curve]
CC(=O)Nc1cccc(NC(=O)CSc2nc(C)c(C)c(C)c2C#N)c1		inconclusive: 21.2 µM [inhibitor, partial curve]
CC(C)NC(=S)N=Nc1c(O)[nH]c2ccc([N+](=O)[O-])cc12		inconclusive: 29.9 µM [inhibitor, single point]
CN(CC(=O)Nc1ccc(N2CCOCC2)cc1)C(=O)CSc1ccccc1F		inconclusive: 26.7 µM [inhibitor, partial curve]
O=C(NCCCN1CCOCC1)c1ccccc1N1C(=O)[C@@H]2Cc3c([nH]c4ccccc34)C(c3cccc(Cl)c3)N2C1=O (some centres not stated)	inactive: 5.63%	
Cc1ccc(S(=O)(=O)c2nc(-c3ccccc3)oc2NCCN2CCOCC2)cc1		inconclusive: 29.9 µM [inhibitor, partial curve]
COc1ccc(CNC(=O)Cc2nn(C)c(=O)c3ccccc23)cc1	inactive: -3.93%	
Cc1cc2nc(-c3ccc[nH]c3=O)n(Cc3ccc(F)cc3)c2cc1C	inactive: -0.938%	
Cc1ccc(C2CC(=O)c3cnc(N4CCN(c5ccccc5)CC4)nc3C2)cc1 (configuration not stated)	inactive: 0.89%	
Cc1ccccc1OS(=O)(=O)c1cn(C)c(=O)n(C)c1=O		inconclusive: 21.2 µM [inhibitor, single point]
